Data from patent US6849596B1, “Regulatory/unfolding peptides of ezrin” (priority 1999, dated 2005).
Some results were stated once for a whole list of compounds, not compound by compound.

Test system: transplanted sarcoma of the uterus SM-322
Experiment: Transplanted mouse sarcoma SM-322 model
Type: in vivo, CBA mice
Conditions: fast growing transplanted sarcomas; slight increase
Source text: Anticancer Activity of Hepreceptor Peptides on the Growth of Transplanted Sarcoma of the Uterus SM-322 and on Cancer of the Uterine Cervix CUS-5 Performed in CBA Mice Using Rupe312 and Rupe414 as Examples Transplanted mouse sarcoma SM-322 model (endothelial tumour). Primary tumours of the uterus were induced in female mice using 1.2 dimethylhydrazine. A few primary tumours were transplanted into syngeneic mice. The first visible nodules started to appear at the point of transplation after 4 days. The life expectancy of the mice with transplanted tumours was 22-24 days. […] The tumours were introduced as a 0.5 ml of tumour suspension (1 g tumour per 10 ml of Igla medium) and ten mice used in each treatment group. […] The average percent decrease of tumour volume relative to the control group was recorded at three time points. The longevity of the mice in the treatment groups and control groups was compared and the histology of the tumours between control and treatment groups was compared.

Row | Sequence | increase in life expectancy
1 | KKRRETVERE (Hepreceptor peptide) [Rupe312] | 3-18%
2 | KRRETVEREKE (Hepreceptor peptide) [Rupe414] | 3-18%
